According to publication PMC4335056:
No constants are given. Whether binding was seen depends on the method and setting. In cells and extracts the contact can be indirect. A yes stands for co-enrichment or nearness to the bait. Other partners may have been found. Tags and fused reporters may be left off the sequences shown.

The chains behind the UniProt entries cited, without tags or fusion partners. Residues count along the entry.
UniProt A3KMH1, residues 29-1905: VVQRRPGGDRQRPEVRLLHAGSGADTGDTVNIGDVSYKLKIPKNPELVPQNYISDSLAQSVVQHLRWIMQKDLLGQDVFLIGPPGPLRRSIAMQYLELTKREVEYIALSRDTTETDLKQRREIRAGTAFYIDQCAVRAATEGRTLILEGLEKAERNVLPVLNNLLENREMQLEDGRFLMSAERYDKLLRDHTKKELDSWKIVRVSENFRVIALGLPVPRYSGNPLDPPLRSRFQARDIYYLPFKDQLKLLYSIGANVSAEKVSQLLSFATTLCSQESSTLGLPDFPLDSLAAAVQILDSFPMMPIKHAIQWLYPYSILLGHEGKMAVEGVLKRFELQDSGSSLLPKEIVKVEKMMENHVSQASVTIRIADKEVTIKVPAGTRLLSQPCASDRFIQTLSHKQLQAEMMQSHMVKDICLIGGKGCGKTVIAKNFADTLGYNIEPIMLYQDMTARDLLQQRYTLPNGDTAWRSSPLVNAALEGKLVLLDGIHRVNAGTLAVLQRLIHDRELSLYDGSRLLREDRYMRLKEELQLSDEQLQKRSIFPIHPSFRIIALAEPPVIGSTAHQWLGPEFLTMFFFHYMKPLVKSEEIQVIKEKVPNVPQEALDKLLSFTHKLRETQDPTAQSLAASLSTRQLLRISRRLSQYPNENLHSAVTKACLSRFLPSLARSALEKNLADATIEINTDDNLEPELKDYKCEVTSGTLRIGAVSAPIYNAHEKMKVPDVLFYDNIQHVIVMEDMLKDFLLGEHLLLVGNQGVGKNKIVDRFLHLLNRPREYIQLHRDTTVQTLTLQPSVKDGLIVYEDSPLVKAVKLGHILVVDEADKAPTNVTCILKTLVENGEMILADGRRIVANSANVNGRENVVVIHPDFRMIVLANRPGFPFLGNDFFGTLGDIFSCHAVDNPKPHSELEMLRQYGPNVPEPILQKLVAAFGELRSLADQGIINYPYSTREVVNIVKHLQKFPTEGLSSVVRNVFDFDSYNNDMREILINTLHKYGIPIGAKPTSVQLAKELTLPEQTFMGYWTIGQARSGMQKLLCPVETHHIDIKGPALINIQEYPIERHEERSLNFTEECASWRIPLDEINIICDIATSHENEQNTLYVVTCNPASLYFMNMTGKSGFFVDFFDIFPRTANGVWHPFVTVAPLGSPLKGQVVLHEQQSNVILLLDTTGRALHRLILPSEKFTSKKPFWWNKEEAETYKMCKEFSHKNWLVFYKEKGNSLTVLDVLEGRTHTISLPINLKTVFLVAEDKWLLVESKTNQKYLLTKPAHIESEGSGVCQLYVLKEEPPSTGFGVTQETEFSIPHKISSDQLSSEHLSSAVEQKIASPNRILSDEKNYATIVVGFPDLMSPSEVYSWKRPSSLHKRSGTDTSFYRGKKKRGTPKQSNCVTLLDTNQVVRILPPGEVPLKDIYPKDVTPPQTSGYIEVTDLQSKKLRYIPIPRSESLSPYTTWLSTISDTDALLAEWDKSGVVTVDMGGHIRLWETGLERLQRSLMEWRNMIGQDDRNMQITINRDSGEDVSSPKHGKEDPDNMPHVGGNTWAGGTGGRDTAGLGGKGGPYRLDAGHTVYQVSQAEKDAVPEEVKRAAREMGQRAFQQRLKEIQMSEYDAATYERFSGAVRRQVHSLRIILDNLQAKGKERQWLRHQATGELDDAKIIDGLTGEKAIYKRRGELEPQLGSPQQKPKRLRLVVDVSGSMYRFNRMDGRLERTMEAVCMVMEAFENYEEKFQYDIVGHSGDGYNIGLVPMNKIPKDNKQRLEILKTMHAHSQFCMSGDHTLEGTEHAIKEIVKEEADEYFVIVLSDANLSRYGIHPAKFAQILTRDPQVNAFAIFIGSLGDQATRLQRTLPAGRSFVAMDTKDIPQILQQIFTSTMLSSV

T1: TwinkleFLAG (mtDNA helicase Twinkle with a FLAG tag at its C-terminus) (UniProt Q96RR1)
T1 sequence: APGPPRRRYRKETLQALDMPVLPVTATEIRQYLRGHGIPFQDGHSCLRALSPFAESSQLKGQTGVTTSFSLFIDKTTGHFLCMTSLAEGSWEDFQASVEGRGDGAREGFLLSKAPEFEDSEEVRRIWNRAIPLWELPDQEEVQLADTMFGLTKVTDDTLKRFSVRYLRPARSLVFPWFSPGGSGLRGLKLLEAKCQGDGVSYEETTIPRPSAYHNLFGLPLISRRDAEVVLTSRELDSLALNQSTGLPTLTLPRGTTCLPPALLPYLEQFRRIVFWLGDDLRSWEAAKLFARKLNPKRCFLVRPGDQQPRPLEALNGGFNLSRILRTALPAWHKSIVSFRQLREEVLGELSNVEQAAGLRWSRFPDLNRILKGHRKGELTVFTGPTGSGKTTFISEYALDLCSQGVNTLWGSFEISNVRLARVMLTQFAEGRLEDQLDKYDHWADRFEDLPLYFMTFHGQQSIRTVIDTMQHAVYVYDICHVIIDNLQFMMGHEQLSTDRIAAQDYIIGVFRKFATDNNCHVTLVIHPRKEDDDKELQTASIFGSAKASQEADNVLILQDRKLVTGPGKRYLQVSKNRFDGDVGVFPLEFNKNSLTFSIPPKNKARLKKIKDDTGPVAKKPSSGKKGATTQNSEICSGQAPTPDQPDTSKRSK

B1: Topoisomerase 3α (enzyme, UniProt Q13472 1-1001)
chain: MIFPVARYALRWLRRPEDRAFSRAAMEMALRGVRKVLCVAEKNDAAKGIADLLSNGRMRRREGLSKFNKIYEFDYHLYGQNVTMVMTSVSGHLLAHDFQMQFRKWQSCNPLVLFEAEIEKYCPENFVDIKKTLERETRQCQALVIWTDCDREGENIGFEIIHVCKAVKPNLQVLRARFSEITPHAVRTACENLTEPDQRVSDAVDVRQELDLRIGAAFTRFQTLRLQRIFPEVLAEQLISYGSCQFPTLGFVVERFKAIQAFVPEIFHRIKVTHDHKDGIVEFNWKRHRLFNHTACLVLYQLCVEDPMATVVEVRSKPKSKWRPQALDTVELEKLASRKLRINAKETMRIAEKLYTQGYISYPRTETNIFPRDLNLTVLVEQQTPDPRWGAFAQSILERGGPTPRNGNKSDQAHPPIHPTKYTNNLQGDEQRLYEFIVRHFLACCSQDAQGQETTVEIDIAQERFVAHGLMILARNYLDVYPYDHWSDKILPVYEQGSHFQPSTVEMVDGETSPPKLLTEADLIALMEKHGIGTDATHAEHIETIKARMYVGLTPDKRFLPGHLGMGLVEGYDSMGYEMSKPDLRAELEADLKLICDGKKDKFVVLRQQVQKYKQVFIEAVAKAKKLDEALAQYFGNGTELAQQEDIYPAMPEPIRKCPQCNKDMVLKTKKNGGFYLSCMGFPECRSAVWLPDSVLEASRDSSVCPVCQPHPVYRLKLKFKRGSLPPTMPLEFVCCIGGCDDTLREILDLRFSGGPPRASQPSGRLQANQSLNRMDNSQHPQPADSRQTGSSKALAQTLPPPTAAGESNSVTCNCGQEAVLLTVRKEGPNRGRQFFKCNGGSCNFFLWADSPNPGAGGPPALAYRPLGASLGCPPGPGIHLGGFGNPGDGSGSGTSCLCSQPSVTRTVQKDGPNKGRQFHTCAKPREQQCGFFQWVDENTAPGTSGAPSWTGDRGRTLESEARSKRPRASSSDMGSTAKKPRKCSLCHQPGHTRPFCPQNR
B2: TFB2M (protein, UniProt Q9H5Q4 20-396)
chain: AGRFCILGSEAATRKHLPARNHCGLSDSSPQLWPEPDFRNPPRKASKASLDFKRYVTDRRLAETLAQIYLGKPSRPPHLLLECNPGPGILTQALLEAGAKVVALESDKTFIPHLESLGKNLDGKLRVIHCDFFKLDPRSGGVIKPPAMSSRGLFKNLGIEAVPWTADIPLKVVGMFPSRGEKRALWKLAYDLYSCTSIYKFGRIEVNMFIGEKEFQKLMADPGNPDLYHVLSVIWQLACEIKVLHMEPWSSFDIYTRKGPLENPKRRELLDQLQQKLYLIQMIPRQNLFTKNLTPMNYNIFFHLLKHCFGRRSATVIDHLRSLTPLDARDILMQIGKQEDEKVVNMHPQDFKTLFETIERSKDCAYKWLYDETLEDR
B3: enoyl-coenzyme A (CoA) hydratase with AUUU RNA binding activity (AUH) (enzyme, UniProt Q13825 68-339)
chain: SSEMKTEDELRVRHLEEENRGIVVLGINRAYGKNSLSKNLIKMLSKAVDALKSDKKVRTIIIRSEVPGIFCAGADLKERAKMSSSEVGPFVSKIRAVINDIANLPVPTIAAIDGLALGGGLELALACDIRVAASSAKMGLVETKLAIIPGGGGTQRLPRAIGMSLAKELIFSARVLDGKEAKAVGLISHVLEQNQEGDAAYRKALDLAREFLPQGPVAMRVAKLAINQGMEVDLVTGLAIEEACYAQTIPTKDRLEGLLAFKEKRPPRYKGE
B4: RNMTL1 (enzyme, UniProt Q9HC36 41-420)
chain: VFPSGEVVEQKRAPGKQPRKAPSEASAQEQREKQPLEESASRAPSTWEESGLRYDKAYPGDRRLSSVMTIVKSRPFREKQGKILLEGRRLISDALKAGAVPKMFFFSRLEYLKELPVDKLKGVSLIKVKFEDIKDWSDLVTPQGIMGIFAKPDHVKMTYPKTQLQHSLPLLLICDNLRDPGNLGTILRSAAGAGCSKVLLTKGCVDAWEPKVLRAGMGAHFRMPIINNLEWETVPNYLPPDTRVYVADNCGLYAQAEMSNKASDHGWVCDQRVMKFHKYEEEEDVETGASQDWLPHVEVQSYDSDWTEAPAAVVIGGETYGVSLESLQLAESTGGKRLLIPVVPGVDSLNSAMAASILLFEGKRQLRGRAEDLSRDRSYH

Biological target: T1, TwinkleFLAG (mtDNA helicase Twinkle with a FLAG tag at its C-terminus)
Assay: cross-linking + affinity purification with mass spectrometry; whole cell 1% formaldehyde cross-linking; method B (X-ChIP): RIPA lysis, sonication, RNAse A, DNAse I and Benzonase for 30 min at 37°C, FLAG resin, RIPA washes, 3xFLAG peptide elution; Q Exactive; enriched ≥2 fold by LFQ over TwinkleFLAG -XL and mtLucFLAG +XL; mtDNA-containing cells, levels also compared with ρ° cells

**Q.** Which binding does the source give for B1 here?
**A.** binds

**Q.** With B2 as the molecule, how does the binding read?
**A.** binds

**Q.** B3 was tested. Which binding did it give?
**A.** binds

**Q.** B4 was tested. Which binding did it give?
**A.** binds

Biological target: T1, TwinkleFLAG (mtDNA helicase Twinkle with a FLAG tag at its C-terminus)
Assay: as above
Remark: another data set of the same source

**Q.** For “von Willebrand factor A domain-containing protein 8 (VWA8) (from UniProt A3KMH1 29-1905)”, which binding is on record?
**A.** binds

**Q.** Which binding does the source give for “small mitoribosomal subunit protein S9 (human (endogenous in HEK293))” here?
**A.** binds
